Laboratory results as given in article doi:10.1101/2024.05.24.595750.
Results are given in words; binding and its absence hold for the method and conditions named. Binding seen in cells or lysates may run through a third protein. Some entries that bind do so weakly or less than the wild type. Each block holds one binder with its values, some of them ahead of it.

Legend:
[1] = molecular target: T1, endothelial NO synthase (eNOS), murine, endogenous (mouse (endogenous in murine lung endothelial cells)) (UniProt P70313); test: co-IP
T1 sequence: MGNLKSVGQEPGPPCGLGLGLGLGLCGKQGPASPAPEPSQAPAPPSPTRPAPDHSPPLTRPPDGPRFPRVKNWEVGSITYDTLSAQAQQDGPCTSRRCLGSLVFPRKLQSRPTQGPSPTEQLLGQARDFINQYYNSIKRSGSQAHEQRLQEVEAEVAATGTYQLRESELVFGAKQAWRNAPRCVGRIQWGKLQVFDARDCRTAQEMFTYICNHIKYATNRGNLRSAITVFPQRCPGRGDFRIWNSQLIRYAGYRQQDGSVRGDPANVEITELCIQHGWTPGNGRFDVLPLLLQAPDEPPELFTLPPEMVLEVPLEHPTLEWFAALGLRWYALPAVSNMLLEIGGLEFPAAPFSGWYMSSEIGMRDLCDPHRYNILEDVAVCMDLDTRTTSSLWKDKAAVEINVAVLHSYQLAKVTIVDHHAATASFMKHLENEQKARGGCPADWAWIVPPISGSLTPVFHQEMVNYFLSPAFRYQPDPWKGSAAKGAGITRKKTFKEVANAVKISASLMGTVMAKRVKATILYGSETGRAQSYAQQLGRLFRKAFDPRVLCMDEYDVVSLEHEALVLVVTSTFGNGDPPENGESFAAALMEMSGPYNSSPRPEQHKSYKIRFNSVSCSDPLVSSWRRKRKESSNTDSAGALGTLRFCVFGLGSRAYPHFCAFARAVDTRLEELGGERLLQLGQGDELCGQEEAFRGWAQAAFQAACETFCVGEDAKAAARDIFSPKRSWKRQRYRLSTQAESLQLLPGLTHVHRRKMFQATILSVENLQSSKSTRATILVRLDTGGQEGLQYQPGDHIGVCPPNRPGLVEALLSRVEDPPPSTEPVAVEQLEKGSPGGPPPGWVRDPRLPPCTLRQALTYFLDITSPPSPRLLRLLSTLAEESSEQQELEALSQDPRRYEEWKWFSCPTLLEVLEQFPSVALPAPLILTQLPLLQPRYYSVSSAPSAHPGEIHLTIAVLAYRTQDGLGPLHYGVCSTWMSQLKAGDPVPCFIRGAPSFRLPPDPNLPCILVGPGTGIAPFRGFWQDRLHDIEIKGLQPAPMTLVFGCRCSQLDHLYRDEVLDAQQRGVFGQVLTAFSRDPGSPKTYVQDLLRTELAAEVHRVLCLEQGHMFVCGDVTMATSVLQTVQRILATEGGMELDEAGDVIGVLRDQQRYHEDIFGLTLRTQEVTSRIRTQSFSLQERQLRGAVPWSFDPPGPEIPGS

[2] = molecular target: T2, endothelial NO synthase (eNOS), human, endogenous (human (endogenous in human umbilical vein endothelial cells)) (UniProt P29474); test: co-IP
T2 sequence: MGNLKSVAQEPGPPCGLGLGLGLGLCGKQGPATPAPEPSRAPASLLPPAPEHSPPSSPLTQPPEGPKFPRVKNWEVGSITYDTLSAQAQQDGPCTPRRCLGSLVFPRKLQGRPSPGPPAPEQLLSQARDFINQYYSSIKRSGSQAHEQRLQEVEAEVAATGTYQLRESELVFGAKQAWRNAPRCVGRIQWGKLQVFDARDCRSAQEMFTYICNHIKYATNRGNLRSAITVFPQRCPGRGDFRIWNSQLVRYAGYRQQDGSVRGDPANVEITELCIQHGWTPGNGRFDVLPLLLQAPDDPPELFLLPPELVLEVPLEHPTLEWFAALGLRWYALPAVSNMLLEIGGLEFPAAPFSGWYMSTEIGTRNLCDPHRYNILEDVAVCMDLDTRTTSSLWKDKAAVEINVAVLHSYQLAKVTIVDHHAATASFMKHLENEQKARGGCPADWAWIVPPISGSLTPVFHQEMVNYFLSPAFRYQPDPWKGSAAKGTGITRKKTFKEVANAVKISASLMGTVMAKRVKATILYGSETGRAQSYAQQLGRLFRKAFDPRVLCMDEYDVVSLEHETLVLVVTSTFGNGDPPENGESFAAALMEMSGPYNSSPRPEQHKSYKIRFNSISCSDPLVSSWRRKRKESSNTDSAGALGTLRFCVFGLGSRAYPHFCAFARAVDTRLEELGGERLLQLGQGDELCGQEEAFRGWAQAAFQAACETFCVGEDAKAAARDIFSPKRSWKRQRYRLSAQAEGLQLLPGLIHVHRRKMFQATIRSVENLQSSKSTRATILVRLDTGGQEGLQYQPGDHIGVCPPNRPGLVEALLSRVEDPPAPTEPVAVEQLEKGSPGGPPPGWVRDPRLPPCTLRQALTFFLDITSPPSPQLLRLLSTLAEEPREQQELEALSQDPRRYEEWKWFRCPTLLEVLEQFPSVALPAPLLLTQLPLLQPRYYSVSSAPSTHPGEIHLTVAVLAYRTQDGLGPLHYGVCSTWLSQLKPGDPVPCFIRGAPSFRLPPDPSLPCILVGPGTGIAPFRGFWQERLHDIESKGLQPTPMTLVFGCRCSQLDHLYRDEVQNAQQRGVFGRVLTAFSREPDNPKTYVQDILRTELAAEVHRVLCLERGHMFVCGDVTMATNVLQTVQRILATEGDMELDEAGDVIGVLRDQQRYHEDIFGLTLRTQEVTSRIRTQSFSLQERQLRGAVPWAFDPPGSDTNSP

binding [1]: binds
B1: double-stranded RNA-specific adenosine deaminase (ADAR1), murine, endogenous (enzyme, UniProt Q99MU3 1-1178)
chain: MSQGFRGPTGVFPHQTQSYLDPSHEHSKWRYPQPQGPESYPRSFQLQQIEFLKGRLPEAPLIGIQTQSLPPFLPGHWPRFPGPPAQDRQLEIWEFPRSVTLRNQGFHIGPPLPPPHSRGTPWRGADGLCSHFRELSISQSPEQKVLNRLEELGEGKATTAHVLARELRIPKRDINRILYSLEKKGKLHRGRGKPPLWSLVPLSQAWTQPPGVVNPDSCIQEFPRGEPGLDSEDGDPASDLEGPSEPLDMAEIKEKICDYLFNVSNSSALNLAKNIGLTKARDVTSVLIDLERQGDVYRQGATPPIWYLTDKKRERLQMKRSTHSAPAPTPTAVPEATRSPSFPACHPPPAGASSSVAASKRVENGQEPAIKHESRHEARPGPMRLRPHAYHNGPSRAGYVASENGQWATDDIPDNLNSIHTAPGEFRAIMEMPSFYSPTLPRCSPYKKLTECQLKNPVSGLLEYAQFTSQTCDFNLIEQSGPSHEPRFKFQVVINGREFPPAEAGSKKVAKQDAAVKAMAILLREAKAKDSGQPEDLSHCPMEEDSEKPAEAQAPSSSATSLFSGKSPVTTLLECMHKLGNSCEFRLLSKEGPAHDPKFQYCVAVGAQTFPPVSAPSKKVAKQMAAEEAMKALQEEAASSADDQSGGANTDSLDESMAPNKIRRIGELVRYLNTNPVGGLLEYARSHGFAAEFKLIDQSGPPHEPKFVYQAKVGGRWFPAVCAHSKKQGKQDAADAALRVLIGESEKAEQLGFAEVTPVTGASLRRTMLLLSRSPDAHPKTLPLSGSTFHDQIAMLSHRCFNALTNSFQPSLLGRKILAAIIMKRDPEDMGVVVSLGTGNRCVKGDSLSLKGETVNDCHAEIISRRGFIRFLYSELMKYNHHTAKNSIFELARGGEKLQIKKTVSFHLYISTAPCGDGALFDKSCSDRAVESTESRHYPVFENPKQGKLRTKVENGEGTIPVESSDIVPTWDGIRLGERLRTMSCSDKILRWNVLGLQGALLTHFLQPVYLKSVTLGYLFSQGHLTRAICCRVTRDGKAFEDGLRYPFIVNHPKVGRVSVYDSKRQSGKTKETSVNWCMADGYDLEILDGTRGTVDGPGKELSRVSKKNIFLQFKKLCSFRARRDLLQLSYGEAKKAARDYDLAKNYFKKSLRDMGYGNWISKPQEEKNFYLCPVPND

binding [2]: binds
B2: double-stranded RNA-specific adenosine deaminase (ADAR1), human, endogenous (enzyme, UniProt P55265 1-1226)
chain: MNPRQGYSLSGYYTHPFQGYEHRQLRYQQPGPGSSPSSFLLKQIEFLKGQLPEAPVIGKQTPSLPPSLPGLRPRFPVLLASSTRGRQVDIRGVPRGVHLRSQGLQRGFQHPSPRGRSLPQRGVDCLSSHFQELSIYQDQEQRILKFLEELGEGKATTAHDLSGKLGTPKKEINRVLYSLAKKGKLQKEAGTPPLWKIAVSTQAWNQHSGVVRPDGHSQGAPNSDPSLEPEDRNSTSVSEDLLEPFIAVSAQAWNQHSGVVRPDSHSQGSPNSDPGLEPEDSNSTSALEDPLEFLDMAEIKEKICDYLFNVSDSSALNLAKNIGLTKARDINAVLIDMERQGDVYRQGTTPPIWHLTDKKRERMQIKRNTNSVPETAPAAIPETKRNAEFLTCNIPTSNASNNMVTTEKVENGQEPVIKLENRQEARPEPARLKPPVHYNGPSKAGYVDFENGQWATDDIPDDLNSIRAAPGEFRAIMEMPSFYSHGLPRCSPYKKLTECQLKNPISGLLEYAQFASQTCEFNMIEQSGPPHEPRFKFQVVINGREFPPAEAGSKKVAKQDAAMKAMTILLEEAKAKDSGKSEESSHYSTEKESEKTAESQTPTPSATSFFSGKSPVTTLLECMHKLGNSCEFRLLSKEGPAHEPKFQYCVAVGAQTFPSVSAPSKKVAKQMAAEEAMKALHGEATNSMASDNQPEGMISESLDNLESMMPNKVRKIGELVRYLNTNPVGGLLEYARSHGFAAEFKLVDQSGPPHEPKFVYQAKVGGRWFPAVCAHSKKQGKQEAADAALRVLIGENEKAERMGFTEVTPVTGASLRRTMLLLSRSPEAQPKTLPLTGSTFHDQIAMLSHRCFNTLTNSFQPSLLGRKILAAIIMKKDSEDMGVVVSLGTGNRCVKGDSLSLKGETVNDCHAEIISRRGFIRFLYSELMKYNSQTAKDSIFEPAKGGEKLQIKKTVSFHLYISTAPCGDGALFDKSCSDRAMESTESRHYPVFENPKQGKLRTKVENGEGTIPVESSDIVPTWDGIRLGERLRTMSCSDKILRWNVLGLQGALLTHFLQPIYLKSVTLGYLFSQGHLTRAICCRVTRDGSAFEDGLRHPFIVNHPKVGRVSIYDSKRQSGKTKETSVNWCLADGYDLEILDGTRGTVDGPRNELSRVSKKNIFLLFKKLCSFRYRRDLLRLSYGEAKKAARDYETAKNYFKKGLKDMGYGNWISKPQEEKNFYLCPV
